{"sequences": {"note": "By UniProt entry, the sequences of proteins in these tests, tags left out.", "UniProt Q92830, whole entry, looked up": "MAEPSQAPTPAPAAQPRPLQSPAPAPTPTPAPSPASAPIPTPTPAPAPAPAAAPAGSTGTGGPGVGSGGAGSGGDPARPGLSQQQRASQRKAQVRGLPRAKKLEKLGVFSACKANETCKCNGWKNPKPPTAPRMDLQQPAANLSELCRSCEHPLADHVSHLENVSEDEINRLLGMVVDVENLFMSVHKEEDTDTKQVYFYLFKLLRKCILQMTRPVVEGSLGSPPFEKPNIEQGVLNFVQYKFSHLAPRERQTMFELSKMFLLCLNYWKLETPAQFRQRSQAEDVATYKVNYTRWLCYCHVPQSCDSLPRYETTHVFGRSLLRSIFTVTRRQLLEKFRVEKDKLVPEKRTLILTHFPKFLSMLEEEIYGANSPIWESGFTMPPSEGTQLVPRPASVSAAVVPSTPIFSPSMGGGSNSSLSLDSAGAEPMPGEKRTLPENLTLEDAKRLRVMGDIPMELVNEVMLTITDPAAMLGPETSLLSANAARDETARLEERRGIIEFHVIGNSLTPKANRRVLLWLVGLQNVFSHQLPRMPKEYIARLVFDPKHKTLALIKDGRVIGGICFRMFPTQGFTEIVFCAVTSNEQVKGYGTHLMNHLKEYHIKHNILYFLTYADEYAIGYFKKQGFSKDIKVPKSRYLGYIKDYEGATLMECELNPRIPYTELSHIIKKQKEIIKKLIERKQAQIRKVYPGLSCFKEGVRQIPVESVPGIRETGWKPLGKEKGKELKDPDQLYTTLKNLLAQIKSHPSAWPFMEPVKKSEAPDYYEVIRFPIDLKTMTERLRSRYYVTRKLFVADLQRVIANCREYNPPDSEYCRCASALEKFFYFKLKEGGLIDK"}, "source": "PubChem BioAssay AID504327", "about": "(National Center for Advancing Translational Sciences (NCATS), 2011)", "note": "Screen size: about 390,000 compounds; about 820 (0.21%) were called active. The shares of active, inactive and inconclusive entries below differ from those in the screen. The call rests on the fitted dose curve; in most records, active means well fitted inhibition curve with a large enough effect; inconclusive means small, poorly fitted or top-dose-only effect, or another doubt; inactive means no such curve, though single readings can be large or run the other way. Where the call is inconclusive, the potency comes from a doubtful curve fit. On the % scale 0 is the no-effect control and ±100 the full control effect; potency means the concentration at half of the fitted maximal effect."}
{"target": "Histone acetyltransferase KAT2A (Homo sapiens) (UniProt Q92830)", "test": "qHTS Assay for Inhibitors of GCN5L2", "conditions": "GCN5L2 HAT assay, ThioGlo1 CoA-SH fluorescence; activity change, negative = inhibition: at 58.9 µM (top of the series) unless noted", "source_text": "Histone acetyltransferase (HAT) enzymes transfer a […] group from acetyl-coenzyme A to the epsilon-amino group of conserved lysine residues of N-terminal histone tails. Acetylation results in charge neutralization of this positively charged amino acid, decreasing interactions with the […] backbone and making the DNA more accessible for transcription. HATs have been recognized as an emerging drug target for treatment of cancer, diabetes, asthma, chronic obstructive pulmonary disease, cardiac disease, and viral infection. Protein identified with HAT activity include the […] like 2 (GCN5L2, a.ka. Histone acetyltransferase KAT2A) which acetylates histone H3 at Lys9, 14, 18, 13, and to lesser extent histones H4 and H2B. This activates transcription of the gene by modulating chromatin structure and installing the acetyllysine recognition mark for bromodomain-containing coactivator proteins.\nA quantitative high throughput screen was developed to identify small molecule inhibitors. The assay is based on the principle that it measures formation of reduced CoA with the pro-fluorescent maleimide derivative ThioGlo1 that becomes fluorescent upon reaction with the free thiol of CoA.\nA large number of artifacts are expected in this primary screen, compounded by the assay format (fluorescent artifacts) and by the high top concentration tested for each substance. This BioAssay data deposition should be used with caution, and counterscreen and secondary assay validation is essential since very few actives from the primary screen are expected to be true inhibitors of GCN5L2.\n[2] Yasgar, et al. Compound Management for Quantitative High-Throughput Screening. JALA. 2008 Apr;13(2):79-89.\n[3] Inglese, et al. Quantitative high-throughput screening: a titration-based approach that efficiently identifies biological activities in large chemical libraries. Proc Natl Acad Sci. 1;103(31):11473-8. 2006. PMID: 16864780\nNIH Molecular Libraries Probe Production Network [MLPCN]\nNIH Chemical Genomics Center [NCGC]\nStructural Genomics Consortium (SGC)\nTo each well of a 1,536w plate, 3ul of GCN5L2 (final concentration 20nM, in 50mM HEPES, 0.1mM EDTA (pH 7.5), 0.01% Tween-20 buffer) are added using a Kalypsys dispenser. Only buffer is added to some wells as a control. A Kalypsys pin-tool transferred 23nl of library compound solution in DMSO to each well, as well as the control inhibit garcinol. . Following a 15 min incubation of enzyme with compounds at room temperature, 1ul mixture of ThioGlo1 (50uM final), H3(1-25) peptide (75uM final), and Acetyl-CoA (70uM final) is added. Plates are read immediately on the ViewLux (PerkinElmer) (Ex340nm/Em540nm) for a 0 min read, incubated for 20 min at room temperature, and read again on the ViewLux with the same settings. The initial read was carried out to identify compounds that are potentially fluorescent."}
{"smiles": "Cc1cccn2c(CNCCc3ccco3)c(C(=O)N3CCOCC3)nc12", "Potency": "inconclusive: 2.51 µM [inhibitor, partial curve, poor fit]"}
{"smiles": "CC1(C)Cn2c(nnc2-c2ccccc2)S1", "activity change, negative = inhibition": "inconclusive: -42.5% [inhibitor] [at 0.501 µM]"}
{"smiles": "Cc1cccc(NC(=O)CN2C(=O)S/C(=C\\c3ccc(O)c([N+](=O)[O-])c3)C2=O)c1", "Potency": "inconclusive: 39.8 µM [inhibitor, single point]"}
{"smiles": "Cc1cccc(C(=O)N[C@H](C(=O)OCc2cc(=O)n3c(n2)sc2ccccc23)C(C)C)c1", "Potency": "inconclusive: 1.58 µM [inhibitor, full curve, poor fit]"}
{"smiles": "CC[C@]1(O)CC2CN(CCc3c([nH]c4ccccc34)[C@@](C(=O)OC)(c3cc4c(cc3OC)N(C=O)[C@H]3[C@@](O)(C(=O)OC)[C@H](OC(C)=O)[C@]5(CC)C=CCN6CC[C@]43[C@@H]65)C2)C1", "note": "(stereo partly drawn)", "Potency": "inconclusive: 39.8 µM [inhibitor, single point]"}
{"smiles": "COc1ccc(C(=O)N2CCN(Cc3cc(=O)n4nc(-c5ccccc5C)sc4n3)CC2)cc1OC", "activity change, negative = inhibition": "inactive: -6.38%"}
{"smiles": "COc1cc(CN(C(=O)COc2ccc(C)cc2)c2ccccn2)cc(OC)c1OC", "activity change, negative = inhibition": "inactive: -10.1%"}
{"smiles": "Cc1cccc(/C(N)=N/OC(=O)N2CCOCC2)c1", "Potency": "inconclusive: 5.01 µM [inhibitor, single point]"}
{"smiles": "CC(=O)NC1[C@H]([C@H](O)[C@H](O)CO)OC(C(=O)O)=C[C@H]1N=C(N)N", "note": "(stereo partly drawn)", "activity change, negative = inhibition": "inactive: -19.8%"}
{"smiles": "COc1cc(NC(=O)c2cccs2)cc(OC)c1", "Potency": "inconclusive: 0.282 µM [inhibitor, full curve, poor fit]"}
{"smiles": "COc1cc(/C=C/c2nc(C#N)c(N3CCCCCC3)o2)cc(OC)c1OC", "Potency": "inconclusive: 28.2 µM [inhibitor, single point]"}
{"smiles": "C=CCN1C(=O)/C(=C\\c2ccc(C)cc2)N=C1SCC(=O)NCCC", "Potency": "inconclusive: 10 µM [inhibitor, single point]"}
{"smiles": "COc1cccc(NS(=O)(=O)c2ccc3c(c2)C2C=CCC2C(c2ccc(C(=O)O)cc2)N3)c1", "note": "(stereo not drawn)", "Potency": "inconclusive: 39.8 µM [inhibitor, single point]"}
{"smiles": "N#Cc1ccc(C2=CC(=O)C[C@H](c3ccc(Cl)cc3)C2)cc1", "Potency": "inconclusive: 25.1 µM [inhibitor, single point]"}
{"smiles": "CCN(CC)S(=O)(=O)c1cccc(C(=O)NCC2(N3CCOCC3)CCCCC2)c1", "Potency": "inconclusive: 7.08 µM [inhibitor, single point]"}
{"smiles": "Cc1ccc(/C=C2/CCc3c([nH]c4ccccc34)C2=O)cc1", "Potency": "inconclusive: 0.562 µM [inhibitor, partial curve]"}
{"smiles": "C[n+]1ccc(C(=O)NCc2ccccc2)cc1", "Potency": "inconclusive: 35.5 µM [inhibitor, single point]"}
{"smiles": "Cc1c2ccccc2nc2c(F)c(NCCO)c(F)c(F)c12", "activity change, negative = inhibition": "inactive: -17.8%"}
{"smiles": "O=C(NC1CC1)c1cc2c(s1)-c1ccccc1OC2", "Potency": "inconclusive: 31.6 µM [inhibitor, single point]"}
{"smiles": "COC(=O)C(C)Sc1nnc(SC(C)C(=O)OC)s1", "note": "(stereo not drawn)", "Potency": "inconclusive: 25.1 µM [inhibitor, single point]"}
{"smiles": "COc1ccc(/C=C/C(=O)Nc2ccccc2C(N)=O)cc1S(=O)(=O)N1CCOCC1", "Potency": "inconclusive: 3.55 µM [inhibitor, single point]"}
{"smiles": "O=S(=O)(Nc1ccc(N2CCCCC2)cc1)c1ccc(F)c(F)c1", "activity change, negative = inhibition": "inactive: -10.5%"}
{"smiles": "COc1ccc(CN(C(=O)c2nsc(Cl)c2Cl)C(C(=O)NC2CCCCC2)c2ccc(OC)cc2)cc1", "note": "(stereo not drawn)", "activity change, negative = inhibition": "inactive: -28.2%"}
{"smiles": "COc1cc(CNC(C)c2ccccc2)cc(Br)c1OCc1ccc(F)cc1", "note": "(stereo not drawn)", "Potency": "inconclusive: 39.8 µM [inhibitor, single point]"}
{"smiles": "O=C(CCC(=O)c1cccs1)NNC(=O)c1ccccc1O", "Potency": "inconclusive: 39.8 µM [inhibitor, single point]"}
{"smiles": "Cc1ccc(-c2nnc(SCC(=O)Nc3cccnc3Cl)n2N)cc1", "activity change, negative = inhibition": "inactive: -0.223%"}
{"smiles": "COc1cccc(CSc2nc3n(n2)C(CC(C)C)C(C(=O)Nc2ccccc2OC)=C(C)N3)c1", "note": "(stereo not drawn)", "activity change, negative = inhibition": "inactive: -4.97%"}
{"smiles": "CCCCN(CC)C(=O)Cn1nc(Cc2ccncc2)c2ccccc2c1=O", "Potency": "inconclusive: 0.1 µM [inhibitor, full curve, poor fit]"}
{"smiles": "CCn1c(-c2cccc(Cl)c2)n[nH]c1=S", "activity change, negative = inhibition": "inactive: -9.51%"}
{"smiles": "Cc1ccccc1Nc1c(-c2ccc(Br)o2)nc2ccc(Cl)cn12", "activity change, negative = inhibition": "inactive: -1.32%"}
{"smiles": "Cc1ccc(NC(=O)CN2CCSc3ccc(S(=O)(=O)N4CCCC4)cc32)cc1", "activity change, negative = inhibition": "inactive: -15.7%"}
{"smiles": "CCN(CC)C(=O)CSc1nnc(COc2ccc(OC)cc2)n1N", "activity change, negative = inhibition": "inactive: -3.8%"}
{"smiles": "CCc1ccccc1N1C(=O)CN(Cc2cc(OC)c(OC)c(OC)c2)C1=S", "activity change, negative = inhibition": "inactive: 0.261%"}
{"smiles": "Cc1nn(CC(=O)N2CCC(C(N)=O)CC2)c(=O)c2nn(-c3ccccc3)c(C)c12", "Potency": "inconclusive: 39.8 µM [inhibitor, partial curve, poor fit]"}
{"smiles": "CCCc1nnc(NC(=O)c2nc(S(=O)(=O)Cc3cccc(C)c3)ncc2Cl)s1", "activity change, negative = inhibition": "inactive: -3.77%"}
{"smiles": "O=C(CSc1nc(O)cc(=O)n1-c1ccc(Cl)c(Cl)c1)Nc1ccc(Cl)cc1Cl", "Potency": "inconclusive: 17.8 µM [inhibitor, partial curve, poor fit]"}
{"smiles": "O=C(CCCCCNC(=O)c1ccccc1)N=Nc1c(O)[nH]c2c(Br)cc(Br)cc12", "Potency": "inconclusive: 39.8 µM [inhibitor, single point]"}
{"smiles": "CCC(=O)N1CCN(c2ccc(NC(=O)c3ccco3)cc2Cl)CC1", "Potency": "inconclusive: 0.562 µM [inhibitor, full curve, poor fit]"}
{"smiles": "CC(C)OC(=O)/C(=C\\c1cccc2ccccc12)NC(=O)c1ccccc1", "activity change, negative = inhibition": "inactive: -5.23%"}
{"smiles": "CCc1ccc([C@@H]2CC=C(C(=O)O)[C@H](c3cccc(Cl)c3)N2S(=O)(=O)c2ccc(C)cc2)cc1", "Potency": "inconclusive: 39.8 µM [inhibitor, single point]"}
{"smiles": "Cc1nn(CC(=O)N/N=C/c2cccs2)c(C)c1[N+](=O)[O-]", "activity change, negative = inhibition": "inactive: -4.92%"}
{"smiles": "CCCCCc1nc(N)c(C#N)c(-c2ccco2)c1CCCC", "Potency": "inconclusive: 7.08 µM [inhibitor, single point]"}
{"smiles": "CC1CCCCC1NC(=O)C1CCCN1S(=O)(=O)c1cccc2nsnc12", "note": "(stereo not drawn)", "Potency": "inconclusive: 39.8 µM [inhibitor, single point]"}
{"smiles": "Cc1cccc(Nc2ccccc2C(=O)OCC(=O)NCc2ccco2)c1C", "Potency": "inconclusive: 4.47 µM [inhibitor, single point]"}
{"smiles": "Cc1c(Cl)cccc1-n1nc(C)c2c(C)cc(=O)n(CC(=O)N3CCCc4ccccc43)c21", "activity change, negative = inhibition": "inactive: 2.71%"}
{"smiles": "COc1cc(C(=O)OCCc2cc3ccccc3c(=O)o2)cc(OC)c1OC", "activity change, negative = inhibition": "inactive: -4.78%"}
{"smiles": "O=C(CCN1C(=O)C2C3C=CC(C3)C2C1=O)NCC1CCCO1", "note": "(stereo not drawn)", "Potency": "inconclusive: 0.891 µM [inhibitor, single point]"}
{"smiles": "Cc1ccc(O)c(C2=NCCNC(C(F)(F)F)=C2)c1", "activity change, negative = inhibition": "inconclusive: -39.4% [inhibitor]"}
{"smiles": "COC(=O)c1c(-c2cccs2)csc1NC(=O)c1ccc(C)cc1", "Potency": "inconclusive: 28.2 µM [inhibitor, partial curve]"}
{"smiles": "CCc1ccc(Sc2cc(C(=O)NCCCN3CCC(C)CC3)c3ccccc3n2)cc1", "activity change, negative = inhibition": "inactive: -17.8%"}
{"smiles": "COc1cc(N=c2ssnc2Cl)cc(OC)c1", "Potency": "active: 22.4 µM"}
{"smiles": "Cc1cc(C)nc(NS(=O)(=O)c2ccc(NS(=O)(=O)c3ccsc3)cc2)n1", "Potency": "inconclusive: 39.8 µM [inhibitor, single point]"}
{"smiles": "O=C(c1ccc2nc(-c3ccco3)c(-c3ccco3)nc2c1)N1CCN(c2ccccc2)CC1", "Potency": "inconclusive: 3.98 µM [inhibitor, full curve]"}
{"smiles": "Cc1n[nH]c(=O)c2c(NC(=O)CSc3ccc(Br)cc3)oc(C)c12", "activity change, negative = inhibition": "inactive: -3.72%"}
{"smiles": "O=C(CSc1nnc(CNC(=O)c2ccccc2F)o1)NC1CCCCC1", "Potency": "inconclusive: 5.01 µM [inhibitor, partial curve, poor fit]"}
{"smiles": "O=S(=O)(Nc1cc(S(=O)(=O)N2CCOCC2)ccc1O)c1ccc2c(c1)OCCCO2", "Potency": "inconclusive: 7.94 µM [inhibitor, partial curve]"}
{"smiles": "Cc1cccc(C2=NN(c3ccc(Br)cc3)[C@@H](C(=O)N3CCOC3=O)[C@@H]2c2ccc(F)cc2)c1", "Potency": "inconclusive: 20 µM [inhibitor, single point]"}
{"smiles": "Nc1ncnc2nc(-c3ccc(N4CCOCC4)nc3)cc(-c3cccc(Br)c3)c12", "Potency": "inconclusive: 35.5 µM [inhibitor, single point]"}
{"smiles": "CN(C)C(=O)c1ccc(-c2nccc(NCc3ccccc3)n2)cc1", "Potency": "inconclusive: 35.5 µM [inhibitor, single point]"}
{"smiles": "NS(=O)(=O)c1ccc(CCn2c(=S)[nH]c3ccc(F)cc3c2=O)cc1", "activity change, negative = inhibition": "inactive: 1.45%"}
{"smiles": "CCc1cc(C(=O)OC)c(NC(=O)CSc2nccn2C)s1", "Potency": "inconclusive: 44.7 µM [inhibitor, partial curve, poor fit]"}
{"smiles": "COC(=O)c1ccc2nc(NC(=O)C(C)C)sc2c1", "activity change, negative = inhibition": "inactive: -8.21%"}
{"smiles": "O=C(/C=C/c1c(Cl)cccc1Cl)NCCc1ccccc1", "Potency": "inconclusive: 1 µM [inhibitor, full curve, poor fit]"}
{"smiles": "CCOc1cc(C(=O)CCC(=O)OCC(=O)Nc2ccc(F)cc2)ccc1O", "Potency": "inconclusive: 10 µM [inhibitor, partial curve]"}
{"smiles": "CC1(C)Cc2c(C#N)c(N3CCN(C(=O)c4ccccc4)CC3)nc(-c3ccco3)c2CS1", "Potency": "inconclusive: 35.5 µM [inhibitor, single point]"}
{"smiles": "CCCn1c(=S)[nH]c2ccc(C(F)(F)F)cc21", "Potency": "inconclusive: 39.8 µM [inhibitor, single point]"}
{"smiles": "Cc1onc(-c2ccccc2)c1-c1csc(N/N=C/c2ccccc2)n1", "activity change, negative = inhibition": "inactive: -12.5%"}
{"smiles": "CCOc1ccc(N(C)S(=O)(=O)c2ccc(C)c(C(=O)NCCc3ccc(OC)cc3)c2)cc1", "activity change, negative = inhibition": "inactive: -6.19%"}
